# Test results published in PubChem BioAssay (EPA / NIEHS).
# Protein sequences, listed by entry. Tags and fused reporters are not part of them.
# UniProt P33261, whole entry, looked up: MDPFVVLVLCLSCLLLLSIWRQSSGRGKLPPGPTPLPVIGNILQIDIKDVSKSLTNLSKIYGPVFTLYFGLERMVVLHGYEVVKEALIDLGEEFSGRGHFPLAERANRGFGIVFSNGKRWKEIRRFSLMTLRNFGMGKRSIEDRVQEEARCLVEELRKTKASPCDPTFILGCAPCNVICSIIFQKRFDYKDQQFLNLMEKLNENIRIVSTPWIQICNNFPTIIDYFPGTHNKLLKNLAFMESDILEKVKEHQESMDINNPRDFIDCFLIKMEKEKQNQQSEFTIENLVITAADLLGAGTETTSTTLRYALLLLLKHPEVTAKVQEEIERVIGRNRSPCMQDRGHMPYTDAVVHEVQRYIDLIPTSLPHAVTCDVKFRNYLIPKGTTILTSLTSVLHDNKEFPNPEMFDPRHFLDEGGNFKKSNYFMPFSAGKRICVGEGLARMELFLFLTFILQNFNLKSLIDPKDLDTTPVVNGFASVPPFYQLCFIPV
# The inconclusive results got no clear call from the source; some entries with a clear call stand among them for comparison. Potencies of inconclusive entries are doubtful fits and often do not repeat. Calls of active or inactive are those of the source. How the source made its calls: active means hit-call score of the fitted dose curve at least 0.9, where 1 is the maximum; inconclusive means response in the unintended direction; inactive means score below 0.9.
# Read-out: Cytochrome P450 2C19 (Homo sapiens) (UniProt P33261)
# Test: CLD_CYP2C19_24hr: CellzDirect (CLD) Gene Expression Assay for xenobiotic metabolism (CYP2C19) at 24 hours (AID 2283687)
# Experimental: CLD_24hr is a cell-based, multiplexed-readout assay that uses hepatocyte, a human liver primary cell, with measurements taken at 24 hours after chemical dosing in a 96-well plate.CLD_CYP2C19_24hr is one of 16 assay component(s) measured or calculated from the CLD_24hr assay. It is designed to make measurements of mRNA induction, a form of inducible reporter, as detected with chemiluminescence signals by Quantitative Nuclease Protection Assay (qNPA) technology.Data from the assay component CLD_CYP2C19_24hr was analyzed at the endpoint, CLD_CYP2C19_24hr, in the positive analysis fitting direction relative to DMSO as the negative control and baseline of activity. Using a type of inducible reporter, gain-of-signal activity can be used to understand changes in the reporter gene as they relate to the gene CYP2C19. Furthermore, this assay endpoint can be referred to as a primary readout. To generalize the intended target to other relatable targets, this assay endpoint is annotated to the cyp intended target family, where subfamily is xenobiotic metabolism.
# Human hepatocyte cultures were treated daily for two consecutive days with fresh dosing solutions containing appropriate concentrations of the 320 ToxCast chemicals (chemical identities were blinded to CellzDirect and other ToxCast collaborators), vehicle control (0.2% DMSO), and positive control inducers as summarized in Table 1. Due to the large number of treatment groups and chemicals examined, the ToxCast chemicals were divided into two groups (spanning two independent cultures of hepatocytes from separate donor preparations (Hu778: ToxCast plates 1 and 2; Hu776: ToxCast plates 3 and 4). Each preparation of human hepatocyte cultures was treated with respective vehicle control, medium only control, set of six positive controls/reference chemicals for the five hepatic receptor pathways, and a subset of eight of the ToxCast chemicals (indoxacarb, pyrithiobac-sodium, norflurazon, cyhalofop-butyl, methomyl, thiram, acetochlor, and propiconazole). These replicate data, coupled with internal replicates designed within the blinded ToxCast chemical library, provided additional data to evaluate interindividual differences between hepatocyte preparations and their potential impact on chemical profiles.Cell morphology and integrity were evaluated using phase-contrast microscopy as an indicator of hepatocyte cell health (Tyson & Green, 1987). Cultures for each treatment group (i.e., media, vehicle [0.2% DMSO], positive control inducers [multiple concentrations], and the ToxCast chemicals [multiple concentrations]) were observed and cell morphology was assessed relative to vehicle control cultures at each harvest time point (0, 6, 24, or 48 h). […] Images were evaluated at the conclusion of the study to assess changes in cell integrity and account for the effects of chemical exposure on uncharacteristic changes in concentration-dependent gene expression profiles. The results from these determinations of apparent cytotoxicity were annotated (yes/no) alongside the corresponding qNPA data for reference.At the conclusion of each treatment period, hepatocyte cultures (96-well) were washed with 1 volume of HBSS, lysed by addition of 25 ul ArrayPlate lysis buffer (HTG, Tucson, AZ), and 70 ul/well of Denaturation Oil, denatured by incubation at 95C for 10 min, and frozen at approximately -70C until analysis by nuclease protection assay (qNPA) (Roberts et al., 2007). For qNPA analysis, cell lysates were thawed at 50C for approximately 30 min, qNPA probes were added, and samples were incubated at 95C for 10 min to begin the detection process by denaturing the target RNA, dissociating the duplexes and secondary structure hybridization. At the conclusion of the hybridization period, S1 nuclease reagent was added to each sample to digest all nonprotected nucleotides at 50C for 60-90 min. […]
SMILES,AC50,outcome
CCOc1cc(Oc2ccc(C(F)(F)F)cc2Cl)ccc1[N+](=O)[O-],inconclusive: 3.97 µM,–
CCc1cnc(C2=NC(C)(C(C)C)C(=O)N2)c(C(=O)O)c1 (stereo not given),–,inactive
CCOP(=S)(Oc1cnc(C(C)(C)C)nc1)OC(C)C (stereo not given),–,inactive
CN1CSC(=S)N(C)C1,inconclusive: 5.74 µM,–
Cc1cc(C2CC2)nc(Nc2ccccc2)n1,inconclusive: 33.6 µM,–
COc1cccc(C(=O)NN(C(=O)c2cc(C)cc(C)c2)C(C)(C)C)c1C,–,inactive
Oc1ccccc1-c1ccccc1,–,inactive
CO/N=C(/C1=NOCCO1)c1ccccc1Oc1ncnc(Oc2ccccc2Cl)c1F,inconclusive: 20 µM,–
C[N+]1(C)CCCCC1,inconclusive: 0.0004 µM,–
COC(=O)c1ccccc1C(=O)OC,–,inactive
CON(C)C(=O)Nc1ccc(Cl)c(Cl)c1,inconclusive: 6.75 µM,–
CCC(=NOC/C=C/Cl)C1=C(O)CC(C2CCOCC2)CC1=O (stereo not given),inconclusive: 20 µM,–
COP(=S)(OC)Oc1ccc([N+](=O)[O-])cc1,inconclusive: 20 µM,–
CCOC(=O)C(C)OC(=O)c1cc(Oc2ccc(C(F)(F)F)cc2Cl)ccc1[N+](=O)[O-] (stereo not given),inconclusive: 20 µM,–
CC(C)N(C(=O)COc1nnc(C(F)(F)F)s1)c1ccc(F)cc1,inconclusive: 8.89 µM,–
CCCCOC(=O)c1ccccc1C(=O)OCCCC,inconclusive: 20 µM,–
CCOCN(C(=O)CCl)c1c(C)cccc1CC,inconclusive: 20 µM,–
CCc1nn(C)c(C(=O)NCc2ccc(C(C)(C)C)cc2)c1Cl,inconclusive: 1.89 µM,–
COC(=O)NC(=S)Nc1ccccc1NC(=S)NC(=O)OC,inconclusive: 0.0013 µM,–
Clc1nc(Cl)nc(Nc2ccccc2Cl)n1,inconclusive: 20 µM,–

SMILES,AC50,outcome
COC(=O)C=C(C)OP(=O)(OC)OC,inconclusive: 6.57 µM,–
COC(=O)C(C)Oc1ccc(Oc2ccc(Cl)cc2Cl)cc1 (stereo not given),inconclusive: 20 µM,inactive
CCNc1nc(Cl)nc(NCC)n1,inconclusive: 20 µM,–
COP(=S)(OC)Oc1ccc(SC)c(C)c1,inconclusive: 20 µM,–
COc1ccc(-c2ccccc2)cc1NNC(=O)OC(C)C,inconclusive: 30 µM,–
CN(C)c1nc(=O)n(C2CCCCC2)c(=O)n1C,–,inactive
Oc1cc(Cl)ccc1Oc1ccc(Cl)cc1Cl,inconclusive: 20 µM,–
CN(C)C(=S)SSC(=S)N(C)C,inconclusive: 34 µM,–
OCCOc1ccccc1,–,inactive
CCC(C)(C)C(=O)OC1=C(c2ccc(Cl)cc2Cl)C(=O)OC12CCCCC2,inconclusive: 20 µM,–
CC1(c2ccc(Oc3ccccc3)cc2)OC(=O)N(Nc2ccccc2)C1=O (stereo not given),inconclusive: 20 µM,–
CC[C@H](C)[C@H]1O[C@]2(C=C[C@@H]1C)C[C@@H]1C[C@@H](C/C=C(\C)[C@@H](O[C@H]3C[C@H](OC)[C@@H](O[C@H]4C[C@H](OC)[C@@H](NC)[C@H](C)O4)[C@H](C)O3)[C@@H](C)/C=C/C=C3\CO[C@@H]4[C@H](O)C(C)=C[C@@H](C(=O)O1)[C@]34O)O2,–,inactive
CCN(CC)C(=O)C(C)Oc1cccc2ccccc12 (stereo not given),–,inactive
CC(C)N1C(=O)N(c2ccccc2)CSC1=NC(C)(C)C,inconclusive: 20 µM,–
CC(C)Oc1cc(-n2nc(C(C)(C)C)oc2=O)c(Cl)cc1Cl,inconclusive: 20 µM,–
CC(C)N1C(=O)c2ccccc2NS1(=O)=O,–,inactive
CCCCC(O)(Cn1cncn1)c1ccc(Cl)cc1Cl (stereo not given),inconclusive: 37 µM,–
C=C(C)CN(CC)c1c([N+](=O)[O-])cc(C(F)(F)F)cc1[N+](=O)[O-],–,inactive
Cc1c(F)c(F)c(COC(=O)C2C(/C=C(\Cl)C(F)(F)F)C2(C)C)c(F)c1F (stereo not given),inconclusive: 20 µM,–

# Shown bar-delimited: part of the list above.
SMILES | AC50 | outcome
COc1ccc(-c2ccccc2)cc1NNC(=O)OC(C)C | inconclusive: 30 µM | –
CN(C)c1nc(=O)n(C2CCCCC2)c(=O)n1C | – | inactive
